Measurements reported in PubChem BioAssay AID1508597 (Cure First, 2020).
Assay: 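Survival screen with siRNA in ovarian cancer cells derived from patients, with or without rucaparib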 (primary screen). Cells: human ovarian carcinoma lines grown from tumours: OCI-P5x (papillary serous) and OCI-C5x (clear cell). Reagent: siRNA pool against human genes, 1.25 pmol siRNA per well. Duration: 72 h or 96 h, depending on the cell culture. Conditions: rucaparib 20 µM (about IC30) or vehicle, present until read-out. Rucaparib or vehicle: Vehicle. Cell line: OCI-C5x (clear cell). Read-out: 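ATP luminescence measured at 72 or 96 h according to the culture, then normalised and expressed as percent viability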. Scale: viability, normalised: higher = more viable cells remaining. Hit rule: 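a well counts as a hit if its normalised viability is under 80 percent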. Meaning of the calls: active = viability under 80%; inactive = viability 80% or more.
This is an unselected part of the about 2,100 reagents, under one of the conditions tested. 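Calls flag viability under 80% in either arm, not effects specific to rucaparib; the reference for percent is not stated.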 Reagent sequences are not shown. Not stated in the record: the 100% reference.

SUPT6H [SID405526507], technical replicate 1 gave viability, normalised (%) = 20.5; active.
With SUPT6H [SID405526507], technical replicate 2, the entry reads viability, normalised (%) = 37; active.
With SUPT6H [SID405526507], technical replicate 3 the deposit lists viability, normalised (%) = 27.1; active.
For PLCB3 [SID405526707], technical replicate 1, the values are viability, normalised (%) = 38; active.
PLCB3 [SID405526707], technical replicate 2 scored viability, normalised (%) = 37.8; active.
With PLCB3 [SID405526707], technical replicate 3 the deposit lists viability, normalised (%) = 29.8; active.
MAPKAPK3 [SID405527573], technical replicate 1 gave viability, normalised (%) = 33.4; active.
MAPKAPK3 [SID405527573], technical replicate 2 scored viability, normalised (%) = 52.2; active.
With MAPKAPK3 [SID405527573], technical replicate 3, the entry reads viability, normalised (%) = 50.8; active.
For ASXL3 [SID405527995], technical replicate 1, the entry reads viability, normalised (%) = 53.6; active.
ASXL3 [SID405527995], technical replicate 2 scored viability, normalised (%) = 60.5; active.
ASXL3 [SID405527995], technical replicate 3 scored viability, normalised (%) = 49; active.
SLC16A9 [SID405527309], technical replicate 1 showed viability, normalised (%) = 23.1; active.
For SLC16A9 [SID405527309], technical replicate 2, the values are viability, normalised (%) = 30.2; active.
SLC16A9 [SID405527309], technical replicate 3 gave viability, normalised (%) = 37.6; active.
ENPP1 [SID405526753], technical replicate 1 scored viability, normalised (%) = 42.6; active.
With ENPP1 [SID405526753], technical replicate 2 the deposit lists viability, normalised (%) = 48.6; active.
ENPP1 [SID405526753], technical replicate 3 gave viability, normalised (%) = 39.8; active.
For DSCC1 [SID405526392], technical replicate 1, the values are viability, normalised (%) = 77.5; active.
With DSCC1 [SID405526392], technical replicate 2, the values are viability, normalised (%) = 71.8; active.
With DSCC1 [SID405526392], technical replicate 3 the deposit lists viability, normalised (%) = 70.7; active.
RRM1 [SID405528428], technical replicate 1 showed viability, normalised (%) = 28.5; active.
RRM1 [SID405528428], technical replicate 2 gave viability, normalised (%) = 27.3; active.
RRM1 [SID405528428], technical replicate 3 gave viability, normalised (%) = 19.2; active.
CKMT1B [SID405528568], technical replicate 1 scored viability, normalised (%) = 49.3; active.
With CKMT1B [SID405528568], technical replicate 2, the entry reads viability, normalised (%) = 39.3; active.
CKMT1B [SID405528568], technical replicate 3 gave viability, normalised (%) = 46.8; active.
With ARID1A [SID405527973], technical replicate 1, the values are viability, normalised (%) = 57.4; active.
For ARID1A [SID405527973], technical replicate 2, the values are viability, normalised (%) = 46.2; active.
ARID1A [SID405527973], technical replicate 3 gave viability, normalised (%) = 49.9; active.
MAP3K10 [SID405527433], technical replicate 1 gave viability, normalised (%) = 74.4; active.
MAP3K10 [SID405527433], technical replicate 2 showed viability, normalised (%) = 49; active.
With MAP3K10 [SID405527433], technical replicate 3, the values are viability, normalised (%) = 52.6; active.
ACVR2A [SID405527369], technical replicate 1 gave viability, normalised (%) = 127; inactive.
ACVR2A [SID405527369], technical replicate 2 scored viability, normalised (%) = 49.1; active.
For ACVR2A [SID405527369], technical replicate 3, the entry reads viability, normalised (%) = 70.7; active.
AGK [SID405528554], technical replicate 1 scored viability, normalised (%) = 55.1; active.
AGK [SID405528554], technical replicate 2 gave viability, normalised (%) = 57.7; active.
AGK [SID405528554], technical replicate 3 showed viability, normalised (%) = 66.9; active.
For DHX37 [SID405528218], technical replicate 1, the values are viability, normalised (%) = 34.7; active.
DHX37 [SID405528218], technical replicate 2 showed viability, normalised (%) = 50.8; active.
With DHX37 [SID405528218], technical replicate 3, the values are viability, normalised (%) = 45.5; active.

Reprinted from the listing, 5 entries:
ACVR2A [SID405527369], technical replicate 3 → viability, normalised (%) = 70.7; Outcome = active
AGK [SID405528554], technical replicate 1 → viability, normalised (%) = 55.1; Outcome = active
AGK [SID405528554], technical replicate 2 → viability, normalised (%) = 57.7; Outcome = active
AGK [SID405528554], technical replicate 3 → viability, normalised (%) = 66.9; Outcome = active
DHX37 [SID405528218], technical replicate 1 → viability, normalised (%) = 34.7; Outcome = active
